# Source: PubChem BioAssay AID256 (DTP/NCI, 2004)
# The list does not hold the whole screen: it gathers tests that were run many times, whatever their T/C, doses with no T/C, and many T/C values between a quarter and a half above the control. Further doses and runs are listed elsewhere. T/C: endpoint of the treated group in % of that of the vehicle group. Some entries give survivors of the animals treated and no T/C: the source files T/C as zero there, which appears to mark a toxic dose or a test without result, not a measured value. Some survivor counts are full or nearly so, which does not show that the dose was tolerated: the source hardly ever lists a survival T/C far under the control, and the zero likely stands for such cases as well. Counts of survivors are from the toxicity check (mostly the fifth day) where no day follows; animals may have died later. Schedules are NCI's codes, taken here to give the interval after Q, in days (D) or hours (H), and the number of doses after X. Some entries were tested several times; the results are listed from low to high. Where survival is the endpoint, the PubChem record calls one and a half times the control and up active, and a quarter to a half above the control has no call in these data; cut-offs in other NCI protocols can differ. Some T/C values carry the count of animals alive at the toxicity check (mostly the fifth day); without a count, all were alive then.
# Tested on: CD2F1 mice, L1210 leukemia ip, survival T/C
# Test: NCI In Vivo Anticancer Drug Screen. Data for tumor model L1210 Leukemia (intraperitoneal) in CD2F1 (CDF1) mice
# Details: higher T/C = longer survival
# Procedure, shortened: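 Mice carrying a transplanted tumor received test compound or vehicle alone. The value is the measurement in the treated group divided by that in the vehicle-treated control group.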
# [1] = T/C endpoint: mean survival time, dose: 100.0 mg/kg/injection, schedule: Q04DX002 (ip), vehicle: saline with Tween-80
# [2] = T/C endpoint: mean survival time, dose: 200.0 mg/kg/injection, schedule: Q01DX009 (ip), vehicle: saline with Tween-80
# [3] = T/C endpoint: mean survival time, dose: 100.0 mg/kg/injection, schedule: Q01DX009 (ip), vehicle: saline with Tween-80
# [4] = T/C endpoint: mean survival time, dose: 400.0 mg/kg/injection, schedule: Q01DX009 (ip), vehicle: saline with Tween-80
# [5] = T/C endpoint: mean survival time, dose: 400.0 mg/kg/injection, schedule: Q04DX003 (ip), vehicle: saline with Tween-80
compound,measurement,setting,value
CCN1c2ccccc2Sc2cc(C=O)ccc21,survivor count,"T/C endpoint: mean survival time, dose: 200.0 mg/kg/injection, schedule: Q01DX009 (ip), vehicle: Klucel (hydroxypropylcellulose) (HPC)",3 of 3
CC(N)CCCO (stereo not given),T/C,"T/C endpoint: mean survival time, dose: 100.0 mg/kg/injection, schedule: Q01DX001 (ip), vehicle: saline",132 % of control [3 of 4 alive]
NC(=O)c1ccc[n+](CCN(CCCl)c2ccc3ccccc3c2)c1,survivor count,"T/C endpoint: mean survival time, dose: 10.0 mg/kg/injection, schedule: Q01DX009 (ip), vehicle: Klucel (hydroxypropylcellulose) (HPC)",1 of 6
same,survivor count,"T/C endpoint: mean survival time, dose: 20.0 mg/kg/injection, schedule: Q01DX009 (ip), vehicle: Klucel (hydroxypropylcellulose) (HPC)",1 of 6
same,survivor count,"T/C endpoint: mean survival time, dose: 40.0 mg/kg/injection, schedule: Q01DX009 (ip), vehicle: Klucel (hydroxypropylcellulose) (HPC)",0 of 6
O=C1CCCC1=P(c1ccccc1)(c1ccccc1)c1ccccc1,survivor count,"T/C endpoint: mean survival time, dose: 400.0 mg/kg/injection, schedule: Q04DX003 (ip), vehicle: other",1 of 6
CN1C(=O)CCSC1=S,survivor count,[1],3 of 3
same,survivor count,"T/C endpoint: mean survival time, dose: 200.0 mg/kg/injection, schedule: Q04DX002 (ip), vehicle: saline with Tween-80",3 of 3
same,survivor count,"T/C endpoint: mean survival time, dose: 400.0 mg/kg/injection, schedule: Q04DX002 (ip), vehicle: saline with Tween-80",3 of 3
C/C(=N/NC(=O)c1ccccc1)c1cccc(O)c1,survivor count,[2],6 of 6
CS(=O)(=O)c1nnc(-c2ccccc2)s1,survivor count,"T/C endpoint: mean survival time, dose: 400.0 mg/kg/injection, schedule: Q04DX003 (ip), vehicle: Klucel (hydroxypropylcellulose) (HPC)",6 of 6
O=Cc1c2ccccc2cc2ccccc12,T/C,"T/C endpoint: mean survival time, dose: 300.0 mg/kg/injection, schedule: Q01DX001 (ip), vehicle: saline",134 % of control
CC(=O)Nc1nc(CCl)cs1,survivor count,"T/C endpoint: mean survival time, dose: 400.0 mg/kg/injection, schedule: Q01DX001 (ip), vehicle: Klucel (hydroxypropylcellulose) (HPC)",0 of 3
c1ccc2c[n+](CCCCCCCCCC[n+]3ccc4ccccc4c3)ccc2c1,survivor count,"T/C endpoint: mean survival time, dose: 16.0 mg/kg/injection, schedule: Q01DX001 (ip), vehicle: saline",6 of 6
CCCCCCCCCCSC(=N)N,survivor count,"T/C endpoint: mean survival time, dose: 50.0 mg/kg/injection, schedule: Q01DX001 (ip), vehicle: Klucel (hydroxypropylcellulose) (HPC)",1 of 3
same,survivor count,"T/C endpoint: mean survival time, dose: 100.0 mg/kg/injection, schedule: Q01DX001 (ip), vehicle: Klucel (hydroxypropylcellulose) (HPC)",1 of 3
same,survivor count,"T/C endpoint: mean survival time, dose: 200.0 mg/kg/injection, schedule: Q01DX001 (ip), vehicle: Klucel (hydroxypropylcellulose) (HPC)",0 of 3
CCCCCCCCCC[n+]1ccc(C#N)cc1,survivor count,"T/C endpoint: mean survival time, dose: 37.5 mg/kg/injection, schedule: Q01DX001 (ip), vehicle: saline",0 of 6
NC1CCCCC1.[I][Pb]([I])([I])[I],survivor count,[3],5 of 6
same,survivor count,[2],6 of 6
same,survivor count,[4],5 of 6
ClC1(Cl)Cc2ccccc21,survivor count,"T/C endpoint: median survival time, dose: 400.0 mg/kg/injection, schedule: Q01DX005 (ip), vehicle: saline with Tween-80",4 of 6
same,survivor count,"T/C endpoint: median survival time, dose: 800.0 mg/kg/injection, schedule: Q01DX005 (ip), vehicle: saline with Tween-80",0 of 6
CN(C)C(=O)Nc1cccc(OS(=O)(=O)N(C)C)c1,survivor count,[5],3 of 6
O=C(O)C1CC(c2ccccc2)=NN1c1ccccc1 (stereo not given),survivor count,"T/C endpoint: mean survival time, dose: 400.0 mg/kg/injection, schedule: Q01DX009 (ip), vehicle: water","0 of 6, 1 of 6, 2 of 6"
Nc1[nH]c(=O)ncc1C(=O)NC(CO)C(=O)O (stereo not given),survivor count,[3],2 of 6
same,survivor count,[2],0 of 6
same,survivor count,[4],0 of 6
Nc1ccc2cc(Cl)ccc2c1,survivor count,[2],4 of 6
same,survivor count,[5],0 of 6
Oc1cc(N2CC2)c(O)cc1N1CC1,T/C,"T/C endpoint: mean survival time, dose: 0.3 mg/kg/injection, schedule: Q01DX009 (ip), vehicle: saline",141 % of control
same,T/C,"T/C endpoint: mean survival time, dose: 0.6 mg/kg/injection, schedule: Q01DX009 (ip), vehicle: saline",137 % of control
same,T/C,"T/C endpoint: mean survival time, dose: 1.25 mg/kg/injection, schedule: Q01DX009 (ip), vehicle: saline",127 % of control
Nc1nc(/C=C(/O)c2ccccc2)c2ncn(C3OC(CO)C(O)C3O)c2n1 (stereo not given),T/C,"T/C endpoint: mean survival time, dose: 50.0 mg/kg/injection, schedule: Q01DX005 (ip), vehicle: distilled water + Tween-80",129 % of control
same,T/C,"T/C endpoint: mean survival time, dose: 100.0 mg/kg/injection, schedule: Q01DX005 (ip), vehicle: distilled water + Tween-80",137 % of control [4 of 6 alive]
same,survivor count,"T/C endpoint: mean survival time, dose: 200.0 mg/kg/injection, schedule: Q01DX005 (ip), vehicle: distilled water + Tween-80",0 of 6 and 2 of 6
same,survivor count,"T/C endpoint: mean survival time, dose: 400.0 mg/kg/injection, schedule: Q01DX005 (ip), vehicle: distilled water + Tween-80",0 of 6
same,survivor count,"T/C endpoint: mean survival time, dose: 400.0 mg/kg/injection, schedule: Q01DX009 (ip), vehicle: distilled water + Tween-80",0 of 6
same,T/C,"T/C endpoint: median survival time, dose: 200.0 mg/kg/injection, schedule: Q01DX009 (ip), vehicle: distilled water + Tween-80",133 % of control [4 of 6 alive]
CCN(CC)c1cc[c]([Hg][O]C(C)=O)cc1,survivor count,"T/C endpoint: mean survival time, dose: 25.0 mg/kg/injection, schedule: Q04DX002 (ip), vehicle: saline with Tween-80",0 of 3
same,survivor count,"T/C endpoint: mean survival time, dose: 50.0 mg/kg/injection, schedule: Q04DX002 (ip), vehicle: saline with Tween-80",0 of 3
same,survivor count,[1],0 of 3
C1OC1C1CO1 (stereo not given),survivor count,"T/C endpoint: mean survival time, dose: 40.0 mg/kg/injection, schedule: Q01DX009 (ip), vehicle: saline",3 of 6
[Cl][Pt+2][Cl].[NH-]C1CCCCC1C1CCCCC1[NH-] (stereo not given),T/C,"T/C endpoint: mean survival time, dose: 12.5 mg/kg/injection, schedule: Q04DX003 (ip), vehicle: distilled water + Tween-80",141 % of control
same,T/C,"T/C endpoint: mean survival time, dose: 50.0 mg/kg/injection, schedule: Q04DX003 (ip), vehicle: distilled water + Tween-80",133 % of control
NCc1cccc(-c2nc3ncnc(N)c3[nH]2)c1,survivor count,"T/C endpoint: mean survival time, dose: 200.0 mg/kg/injection, schedule: Q01DX009 (ip), vehicle: saline",0 of 3
O=C(CCOP(=O)(NCCCl)NCCCl)c1ccccc1,T/C,"T/C endpoint: median survival time, dose: 62.5 mg/kg/injection, schedule: Q01DX001 (ip), vehicle: saline with Tween-80",142 % of control
same,T/C,"T/C endpoint: median survival time, dose: 125.0 mg/kg/injection, schedule: Q01DX001 (ip), vehicle: saline with Tween-80",138 % of control
same,survivor count,"T/C endpoint: median survival time, dose: 500.0 mg/kg/injection, schedule: Q01DX001 (ip), vehicle: saline with Tween-80",4 of 6
Nc1nc2ccccc2c2c1C(=O)NC2=O,survivor count,[5],6 of 6
CCOC(=O)Nc1cc(N)c2[nH]cnc2n1,survivor count,"T/C endpoint: mean survival time, dose: 200.0 mg/kg/injection, schedule: Q01DX001 (ip), vehicle: carboxymethylcellulose (CMC)",3 of 6
same,survivor count,"T/C endpoint: mean survival time, dose: 400.0 mg/kg/injection, schedule: Q01DX001 (ip), vehicle: carboxymethylcellulose (CMC)",0 of 6
CSc1nc(NC(C)C)nc(NC(C)C)n1,survivor count,"T/C endpoint: mean survival time, dose: 400.0 mg/kg/injection, schedule: Q04DX003 (ip), vehicle: saline",2 of 6
COc1cc(Cl)ccc1NC(=O)Nc1c(C)n(C)n(-c2ccccc2)c1=O,survivor count,[2],3 of 3
CCOC(=O)Nc1cc2c(c(N)n1)N=C(c1ccc(Cl)cc1Cl)CN2,survivor count,"T/C endpoint: median survival time, dose: 25.0 mg/kg/injection, schedule: Q01DX009 (ip), vehicle: saline with Tween-80",6 of 6
same,survivor count,"T/C endpoint: median survival time, dose: 50.0 mg/kg/injection, schedule: Q01DX009 (ip), vehicle: saline with Tween-80",4 of 6
Cc1cc2cc3cc(C)c(N)cc3nc2cc1N,survivor count,[3],2 of 6
CO[C@@]12[C@@H]3N[C@@H]3CN1C1=C(C(=O)C(Nc3cccc(O)c3)=C(C)C1=O)[C@@H]2COC(N)=O,T/C,"T/C endpoint: median survival time, dose: 1.5 mg/kg/injection, schedule: Q01DX001 (ip), vehicle: distilled water + Tween-80",135 % of control
same,T/C,"T/C endpoint: median survival time, dose: 3.0 mg/kg/injection, schedule: Q01DX001 (ip), vehicle: distilled water + Tween-80",139 % of control
same,T/C,"T/C endpoint: median survival time, dose: 3.0 mg/kg/injection, schedule: Q01DX001 (ip), vehicle: water",144 % of control
same,T/C,"T/C endpoint: median survival time, dose: 6.0 mg/kg/injection, schedule: Q01DX001 (ip), vehicle: distilled water + Tween-80",135 % of control
same,T/C,"T/C endpoint: median survival time, dose: 6.0 mg/kg/injection, schedule: Q01DX001 (ip), vehicle: water",138 and 147 % of control
same,T/C,"T/C endpoint: median survival time, dose: 12.0 mg/kg/injection, schedule: Q01DX001 (ip), vehicle: distilled water + Tween-80",139 % of control
same,T/C,"T/C endpoint: median survival time, dose: 12.0 mg/kg/injection, schedule: Q01DX001 (ip), vehicle: water",136 % of control
same,survivor count,"T/C endpoint: median survival time, dose: 24.0 mg/kg/injection, schedule: Q01DX001 (ip), vehicle: water",6 of 6
